{"sequences": {"note": "By UniProt entry, the sequences of proteins in these tests, tags left out.", "UniProt P84022": "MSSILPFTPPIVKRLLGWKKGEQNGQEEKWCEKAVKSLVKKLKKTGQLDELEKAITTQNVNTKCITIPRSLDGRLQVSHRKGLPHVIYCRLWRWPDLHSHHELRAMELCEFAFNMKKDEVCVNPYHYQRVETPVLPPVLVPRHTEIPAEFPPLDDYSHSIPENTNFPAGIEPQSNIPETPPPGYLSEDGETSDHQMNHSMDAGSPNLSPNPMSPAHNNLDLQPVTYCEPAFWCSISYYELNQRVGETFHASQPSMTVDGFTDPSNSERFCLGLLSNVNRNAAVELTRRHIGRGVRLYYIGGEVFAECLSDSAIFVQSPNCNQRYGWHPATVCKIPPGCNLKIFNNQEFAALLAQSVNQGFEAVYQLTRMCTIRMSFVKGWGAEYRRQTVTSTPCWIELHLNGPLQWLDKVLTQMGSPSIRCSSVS"}, "source": "paper PMC5415763", "binders": {"B1": {"name": "Response gene to complement 32 (RGC32) (protein, UniProt Q9H4X1 1-137)", "chain": "MKPPAAQGSPAAAAAAAPALDSAAAEDLSDALCEFDAVLADFASPFHERHFHYEEHLERMKRRSSASVSDSSGFSDSESADSLYRNSFSFSDEKLNSPTDSTPALLSATVTPQKAKLGDTKELEAFIADLDKTLASM"}, "B2": {"name": "Sip1 (Smad-interacting protein 1) (protein, UniProt O60315 1-1214)", "chain": "MKQPIMADGPRCKRRKQANPRRKNVVNYDNVVDTGSETDEEDKLHIAEDDGIANPLDQETSPASVPNHESSPHVSQALLPREEEEDEIREGGVEHPWHNNEILQASVDGPEEMKEDYDTMGPEATIQTAINNGTVKNANCTSDFEEYFAKRKLEERDGHAVSIEEYLQRSDTAIIYPEAPEELSRLGTPEANGQEENDLPPGTPDAFAQLLTCPYCDRGYKRLTSLKEHIKYRHEKNEENFSCPLCSYTFAYRTQLERHMVTHKPGTDQHQMLTQGAGNRKFKCTECGKAFKYKHHLKEHLRIHSGEKPYECPNCKKRFSHSGSYSSHISSKKCIGLISVNGRMRNNIKTGSSPNSVSSSPTNSAITQLRNKLENGKPLSMSEQTGLLKIKTEPLDFNDYKVLMATHGFSGTSPFMNGGLGATSPLGVHPSAQSPMQHLGVGMEAPLLGFPTMNSNLSEVQKVLQIVDNTVSRQKMDCKAEEISKLKGYHMKDPCSQPEEQGVTSPNIPPVGLPVVSHNGATKSIIDYTLEKVNEAKACLQSLTTDSRRQISNIKKEKLRTLIDLVTDDKMIENHNISTPFSCQFCKESFPGPIPLHQHERYLCKMNEEIKAVLQPHENIVPNKAGVFVDNKALLLSSVLSEKGMTSPINPYKDHMSVLKAYYAMNMEPNSDELLKISIAVGLPQEFVKEWFEQRKVYQYSNSRSPSLERSSKPLAPNSNPPTKDSLLPRSPVKPMDSITSPSIAELHNSVTNCDPPLRLTKPSHFTNIKPVEKLDHSRSNTPSPLNLSSTSSKNSHSSSYTPNSFSSEELQAEPLDLSLPKQMKEPKSIIATKNKTKASSISLDHNSVSSSSENSDEPLNLTFIKKEFSNSNNLDNKSTNPVFSMNPFSAKPLYTALPPQSAFPPATFMPPVQTSIPGLRPYPGLDQMSFLPHMAYTYPTGAATFADMQQRRKYQRKQGFQGELLDGAQDYMSGLDDMTDSDSCLSRKKIKKTESGMYACDLCDKTFQKSSSLLRHKYEHTGKRPHQCQICKKAFKHKHHLIEHSRLHSGEKPYQCDKCGKRFSHSGSYSQHMNHRYSYCKREAEEREAAEREAREKGHLEPTELLMNRAYLQSITPQGYSDSEERESMPRDGESEKEHEKEGEDGYGKLGRQDGDEEFEEEEEESENKSMDTDPETIRDEEETGDHSMDDSSEDGKMETKSDHEEDNMEDGM"}, "B3": {"name": "Smad2, Q15796 1-467 (protein)", "chain": "MSSILPFTPPVVKRLLGWKKSAGGSGGAGGGEQNGQEEKWCEKAVKSLVKKLKKTGRLDELEKAITTQNCNTKCVTIPSTCSEIWGLSTPNTIDQWDTTGLYSFSEQTRSLDGRLQVSHRKGLPHVIYCRLWRWPDLHSHHELKAIENCEYAFNLKKDEVCVNPYHYQRVETPVLPPVLVPRHTEILTELPPLDDYTHSIPENTNFPAGIEPQSNYIPETPPPGYISEDGETSDQQLNQSMDTGSPAELSPTTLSPVNHSLDLQPVTYSEPAFWCSIAYYELNQRVGETFHASQPSLTVDGFTDPSNSERFCLGLLSNVNRNATVEMTRRHIGRGVRLYYIGGEVFAECLSDSAIFVQSPNCNQRYGWHPATVCKIPPGCNLKIFNNQEFAALLAQSVNQGFEAVYQLTRMCTIRMSFVKGWGAEYRRQTVTSTPCWIELHLNGPLQWLDKVLTQMGSPSVRCSSMS"}}, "test_in_all_cases": "co-IP; coimmunoprecipitation assay; cells, precipitating antibodies and conditions not stated", "key": {"[1]": {"biological_target": "T1, Sip1 (Smad-interacting protein 1) (human) (UniProt O60315)", "T1 sequence": "B2 chain"}, "[2]": {"biological_target": "Smad2 (human (endogenous in human CRC cell lines)) (UniProt Q15796)"}, "[3]": {"biological_target": "Smad3 (human (endogenous in human CRC cell lines)) (UniProt P84022)"}, "[4]": {"biological_target": "Smad3 (human (endogenous in human CRC cell lines)), P84022", "settings": "remark: other sources report otherwise"}}, "note": "Results are given in words; binding and its absence hold for the method and conditions named. Binding seen in cells or lysates may run through a third protein. Some results given as binding are weak or reduced against the parent protein; the word gives no strength."}
{"binder": "B1", "values": [{"measurement": "binding", "setting": "[1]", "result": "binds"}, {"measurement": "binding", "setting": "[2]", "result": "binds"}, {"measurement": "binding", "setting": "[3]", "result": "binds"}]}
{"binder": "B2", "values": [{"measurement": "binding", "setting": "[2]", "result": "binds"}, {"measurement": "binding", "setting": "[3]", "result": "binds"}]}
{"binder": "B3", "values": [{"measurement": "binding", "setting": "[4]", "result": "binds"}]}
